# Experimental data: PubChem BioAssay AID1259424 (University of Nebraska Medical Center, 2018)
# Aim: 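Rank knockdowns across the genome by resemblance to the KSR1 depletion profile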 (primary screen)
# Cells: human HCT116 colon cancer cells
# Reagent: siRNA pool against human genes, 50 nM
# Measured: 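Six signature mRNAs by branched-DNA multiplex assay, scaled to two housekeeping genes and non-targeting median, log2; matched to mean KSR1 knockdown profile by Pearson correlation and euclidean distance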
# Direction: mean correlation with KSR1 profile and KSR1 correlation: higher = expression change more like KSR1 knockdown; mean distance from KSR1 profile: higher = expression change less like KSR1 knockdown
# This is one part, drawn at random, of about 14,000 reagents tested. 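Higher correlation or smaller distance means closer resemblance to KSR1 loss; control wells, including KSR1 knockdowns, recur on many plates.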 Reagent sequences are not shown. The record does not give: the time to read-out.
gene symbol,mean correlation with KSR1 profile,mean distance from KSR1 profile,"KSR1 correlation, replicate 1","KSR1 correlation, replicate 2","KSR1 correlation, replicate 3"
FOS,0.88,0.927,0.831,0.688,0.782
FEM1A,-0.743,1.86,-0.836,-0.736,-0.305
NCAPD3,-0.715,1.99,-0.688,-0.571,-0.542
ATF7IP,0.434,2.16,0.641,0.409,0.278
NSUN5,0.345,3.08,0.322,0.367,0.4
KSR2,0.0264,2.12,-0.0286,0.263,0.0502
TIPIN,0.236,1.52,0.055,0.296,-0.0348
GML,-0.0921,2.95,-0.212,-0.219,-0.249
OR10A3,0.335,1.98,0.142,0.00589,0.0414
LMAN2L,0.51,2.42,0.578,0.475,0.374
KIF3B,0.343,1.15,0.241,0.283,0.444
FAM167B,0.806,1.21,0.702,0.743,0.847
ACIN1,-0.367,2.27,-0.291,-0.637,-0.208
HLA-DRB4,-0.626,2.13,-0.773,-0.548,-0.541
CIRSR,-0.709,2.06,-0.745,-0.739,-0.608
SNX12,0.0237,1.83,-0.438,-0.288,-0.147
STAG3L1,0.307,1.19,0.145,0.451,0.232
MVP,-0.651,3.02,-0.672,-0.667,-0.595
MMP9,0.628,1.64,0.694,0.637,0.447
CTNNB1,-0.0361,2.32,0.143,-0.136,-0.205
GPR3,0.305,2.07,0.419,0.391,0.128
NFKB2,-0.16,2.05,0.0364,0.19,-0.326
TCOF1,-0.571,1.64,-0.125,-0.655,-0.7
CFAP20,0.199,1.52,0.0416,0.107,0.0513
RPL26L1,-0.426,2.13,-0.579,-0.314,-0.165
SMC6,-0.467,2.42,-0.223,0.397,-0.691
RXFP2,0.431,1.77,0.368,0.319,0.617
CRYBB3,-0.357,2.31,-0.347,-0.198,-0.549
TSSK4,0.616,1.83,0.771,0.241,0.306
SLC19A4P,-0.292,1.69,-0.526,-0.0422,-0.0567
ALDH3A1,0.265,2.22,0.158,0.443,0.593
DHRS3,0.118,1.49,0.133,0.127,0.496
COL6A1,0.361,1.09,0.365,0.288,0.324
MS4A1,-0.26,2.32,-0.423,-0.134,-0.415
ZNF319,-0.189,3.61,-0.0779,-0.335,-0.194
DAZ3,-0.0123,1.21,0.164,-0.299,-0.0148
RCAN3,0.0834,1.37,0.215,-0.123,0.178
DNASE1L3,-0.333,2.72,-0.336,-0.386,-0.338
SLCO3A1,0.448,1.24,0.541,0.155,0.0568
SOX4,0.524,2.28,0.5,0.522,0.538
FLII,-0.559,2.21,-0.528,-0.461,-0.61
PIGN,-0.698,2.58,-0.456,-0.846,-0.496
PPP4R4,-0.588,1.8,-0.66,-0.437,-0.323
RABL2B,0.662,1.68,0.614,0.721,0.527
CLDN8,0.551,1.45,0.652,0.568,0.585
ANAPC7,-0.639,2.07,-0.664,-0.573,-0.626
ADAMTS19,-0.267,2.18,-0.199,-0.692,-0.0397
DPM1,-0.524,4.04,-0.432,-0.515,-0.578
SLC2A9,-0.616,1.92,-0.0555,-0.63,-0.721
FCN1,-0.275,2.01,-0.47,-0.422,-0.189
SDHAF3,0.437,1.98,0.705,0.459,0.137
ERRFI1,-0.0678,1.73,-0.155,-0.233,-0.035
TIMP2,-0.31,1.58,-0.277,-0.318,-0.357
GPR26,0.103,2.07,0.0645,0.261,-0.11
MAT2B,-0.632,2.7,-0.685,-0.588,-0.643
PTPMT1,-0.489,2.43,-0.39,-0.386,-0.666
TNPO3,-0.256,2.55,-0.534,-0.0925,-0.187
ANAPC13,-0.319,2.03,-0.0838,-0.289,-0.54
PMFBP1,0.516,1.98,0.404,0.487,0.506
PCF11,-0.447,6.02,-0.282,-0.676,-0.356
BAZ1B,0.309,3.34,-0.0357,0.206,0.495
WDR45B,-0.702,1.56,-0.748,-0.785,-0.831
CRACD,-0.476,2.49,-0.45,-0.46,-0.442

Look-ups from above.
CTNNB1, KSR1 correlation, replicate 3: -0.205
FEM1A, mean correlation with KSR1 profile → -0.743
ANAPC13, mean correlation with KSR1 profile → -0.319
Value for WDR45B in “KSR1 correlation, replicate 2”: -0.785
Under “mean correlation with KSR1 profile”, RABL2B shows 0.662
